Here are results for two molecules from paper PMC7253352.

Test [1] has as its target T1, SRSF2, endogenous (HeLa) (human (endogenous in HeLa)) (UniProt Q01130).
T1 sequence: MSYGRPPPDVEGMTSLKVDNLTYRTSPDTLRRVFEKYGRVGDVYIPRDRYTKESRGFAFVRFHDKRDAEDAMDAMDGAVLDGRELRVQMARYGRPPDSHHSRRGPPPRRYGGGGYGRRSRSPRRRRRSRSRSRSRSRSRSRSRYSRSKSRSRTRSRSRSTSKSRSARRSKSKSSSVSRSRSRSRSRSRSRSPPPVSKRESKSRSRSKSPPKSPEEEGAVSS
As to the kind of experiment: co-IP; endogenous proteins, nuclear fraction of HeLa cells, untreated or CDDP 50 µM for 3 and 6 h; lysates IP with anti-SRSF2 antibody.

In test [2] the target is T2, SFPQ, endogenous (MDAH) (human (endogenous in MDAH-2774)) (UniProt P23246).
T2 sequence: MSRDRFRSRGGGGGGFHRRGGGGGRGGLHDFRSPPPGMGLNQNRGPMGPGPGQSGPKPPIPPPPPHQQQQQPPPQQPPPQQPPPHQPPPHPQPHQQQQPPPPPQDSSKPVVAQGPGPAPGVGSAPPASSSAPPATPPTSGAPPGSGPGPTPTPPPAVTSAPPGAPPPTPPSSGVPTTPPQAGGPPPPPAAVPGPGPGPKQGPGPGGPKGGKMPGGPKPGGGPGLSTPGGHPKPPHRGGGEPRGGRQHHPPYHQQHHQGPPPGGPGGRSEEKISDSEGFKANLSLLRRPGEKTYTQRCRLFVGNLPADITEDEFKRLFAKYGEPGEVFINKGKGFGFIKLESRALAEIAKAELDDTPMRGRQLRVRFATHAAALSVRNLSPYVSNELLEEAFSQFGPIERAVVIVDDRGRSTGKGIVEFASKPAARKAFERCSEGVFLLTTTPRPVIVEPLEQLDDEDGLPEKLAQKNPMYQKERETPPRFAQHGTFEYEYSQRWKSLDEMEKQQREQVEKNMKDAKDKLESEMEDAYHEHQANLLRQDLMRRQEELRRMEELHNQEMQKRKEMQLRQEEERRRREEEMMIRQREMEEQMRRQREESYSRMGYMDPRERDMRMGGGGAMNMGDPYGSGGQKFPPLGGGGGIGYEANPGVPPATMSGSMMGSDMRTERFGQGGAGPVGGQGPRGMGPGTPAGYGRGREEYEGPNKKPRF
As to the kind of experiment: co-IP; MDAH cells stably transduced with sh-ctrl or sh-p54nrb, transiently transfected with GFP-SRSF2, CDDP 50 µM for 3 h; IP with anti-SFPQ antibody on nuclear extracts.

These are yes or no findings as the source states them, for the method shown. In cells and extracts the contact can be indirect. Some entries that bind do so weakly or less than the wild type. For some assays here: Tags and fused reporters may be left off the sequences shown.

B1: p54^nrb, endogenous (HeLa) (protein, UniProt Q15233 1-471)
chain: MQSNKTFNLEKQNHTPRKHHQHHHQQQHHQQQQQQPPPPPIPANGQQASSQNEGLTIDLKNFRKPGEKTFTQRSRLFVGNLPPDITEEEMRKLFEKYGKAGEVFIHKDKGFGFIRLETRTLAEIAKVELDNMPLRGKQLRVRFACHSASLTVRNLPQYVSNELLEEAFSVFGQVERAVVIVDDRGRPSGKGIVEFSGKPAARKALDRCSEGSFLLTTFPRPVTVEPMDQLDDEEGLPEKLVIKNQQFHKEREQPPRFAQPGSFEYEYAMRWKALIEMEKQQQDQVDRNIKEAREKLEMEMEAARHEHQVMLMRQDLMRRQEELRRMEELHNQEVQKRKQLELRQEEERRRREEEMRRQQEEMMRRQQEGFKGTFPDAREQEIRMGQMAMGGAMGINNRGAMPPAPVPAGTPAPPGPATMMPDGTLGLTPPTTERFGQAATMEGIGAIGGTPPAFNRAAPGAEFAPNKRRRY
Regarding B1, the binding entry in test [1] is “binds”.

B2: GFP-SRSF2 (in MDAH cells) (protein, UniProt Q01130 1-221)
chain: T1 sequence
B2: in test [2], the binding result is on record as “binds”.
